Measurements: patent US20210214432A1 (Y BIOLOGICS, published 2021)
Results are given in words; binding and its absence hold for the method and conditions named. Some binding calls cover weakened binding; strength is not graded here. Sequences can lack the tags named with a protein.

T1: mouse DLK1 hFc fusion protein (mouse) (UniProt Q09163)
T1 sequence (looked up): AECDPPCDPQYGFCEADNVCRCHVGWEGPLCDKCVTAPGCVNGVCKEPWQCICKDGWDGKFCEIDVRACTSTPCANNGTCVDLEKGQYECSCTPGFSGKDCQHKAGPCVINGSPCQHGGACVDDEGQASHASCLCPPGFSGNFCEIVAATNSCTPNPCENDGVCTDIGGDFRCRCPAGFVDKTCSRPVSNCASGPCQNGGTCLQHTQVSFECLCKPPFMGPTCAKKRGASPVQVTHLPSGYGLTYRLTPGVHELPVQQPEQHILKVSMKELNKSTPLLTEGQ


Target: T1, mouse DLK1 hFc fusion protein (mouse)
Assay: ELISA on hFc fusion proteins of human, mouse and monkey DLK1

Row | Binder | binding
1 | human anti-DLK1 monoclonal antibody 18A5 (antibody, V domains shown, Converted from scFv to IgG; also called DLK1-18A5) VH: QVQLVQSGGAVVQPGHSLRLSCEASGFKFKDYGMHWVRQAPGKGLEWLAVISHDGRNKNYADSVKGRLTISRDNSKNTLSFQMNSLRAEDTAVYYCVRDWSYAFDIWGQGTLVTVSS VL: DIQMTQSPSFLSASVGDRVNITCRASQDISRRLAWYQQKPGKAPKLLIYGAASLQSAVASRFSGSGSGTEFTLTISSLQPEDFANYYCQQIYTTPLTFGGGTKVEIK | binds
2 | human anti-DLK1 monoclonal antibody 35E2 (antibody, V domains shown, Converted from scFv to IgG) VH: QVQLVESGGGVVQPGRSLRLSCAASGFTFSSYAMHWVRQAPGKGLEWVAVIYSGGSTYYADSVKGRFTISRDNSKNTLYLQMNSLRAEDTAVYYCAREGSYDVMTYTRIGGYFDYWGQGALVTVSS VL: DIQMTQSPSSVSASVGDRVTITCRASQGISDWVAWYQQKPGKAPKLLIYAASSLQSGVPSRFSGSGSGTEFSLTISNLQPEDFATYYCQQANSFPLTFGPGTKVEIK | binds
3 | human anti-DLK1 monoclonal antibody variant 18A5_LS_1A10 (antibody, V domains shown) VH: QVQLVQSGGAVVQPGHSLRLSCEASGFKFKDYGMHWVRQAPGKGLEWLAVISHDGRNKNYADSVKGRLTISRDNSKNTLSFQMNSLRAEDTAVYYCVRDWSYAFDIWGQGTLVTVSS VL: DIQMTQSPSSLSASLGDRVTITCRASQGISSALAWYQQKPGKAPKLLIYAASSLQSGVPSRFSGSGSGTDFTLTINSLQPEDFATYYCQQSYTTPLTFGGGTKVEIK | binds
4 | human anti-DLK1 monoclonal antibody variant 18A5_AM_1A12 (antibody, V domains shown) VH: QVQLVQSGGGVVQPGGSLRLSCAASGFKFKDYGMHWVRQAPGKGLEWLAVISHDGRNKNYADSVKGRLTISRDNSKNTLSFQMNSLRAEDTAVYYCVRDWSYAFDIWGQGTLVTVSS VL: DIQMTQSPSFLSASVGDRVTITCRASHDISSSLAWYQQKSGKAPKLLIYSASNLKSGVPSRFSGSGSGTDFSLTISSLQPEDFATYYCQQSYTTVLTFGGGTKLEIK | binds
